US8161968B2, “Medicament dispenser” (Glaxo Group Limited, priority 2003, dated 2012)
Some results were stated once for a whole list of compounds, not compound by compound. For at least one compound, name, drawing or mass did not settle the structure.

Molecular target: PDE4
Assay: IC50 ratio: PDE4 form binding rolipram with high affinity over form binding rolipram with low affinity
Type: biochemical
Details: competing with binding of 1 nM [3H]R-rolipram (high affinity form) over inhibiting catalytic activity (low affinity form) using 1 μM [3H]-cAMP; method per U.S. Pat. No. 5,998,428

Row | SMILES | IC50 ratio (IC50 for the PDE4 catalytic form which binds rolipram with a high affinity divided by the IC50 for the form which binds rolipram with a low affinity)
1 | COC(=O)C1CC(C#N)(c2ccc(OC(F)F)c(OCC3CC3)c2)CCC1=O (stereo not drawn) [2-carbomethoxy-4-cyano-4-(3-cyclopropylmethoxy-4-difluoromethoxyphenyl)cyclohexan-1-one] | ≥ 0.1
2 | COc1ccc([C@]2(C#N)CC[C@@H](C(=O)O)CC2)cc1OC1CCCC1 [cis 4-cyano-4-(3-cyclopentyloxy-4-methoxyphenyl)cyclohexan-1-carboxylic acid] | ≥ 0.1
3 | N#CC1(c2ccc(OC(F)F)c(OCC3CC3)c2)CCC(O)CC1 (stereo not drawn) [cis-[4-cyano-4-(3-cyclopropylmethoxy-4-difluoromethoxyphenyl)cyclohexan-1-ol]] | ≥ 0.1
